Out of some 300,000 compounds screened, about 3,700 (1.2%) were called active. The inconclusive results got no clear call from the source; some entries with a clear call stand among them for comparison. Calls follow the shape of the full dose curve; tested in HEK293 cells. Potencies of inconclusive entries are doubtful fits and often do not repeat.
Assay: qHTS for Inhibitors of binding or entry into cells for Lassa Virus; also: nearly all actives have a fitted effect of over 50% in size
Conditions: Lassa virus pseudotype entry inhibition, cell reporter; activity change, negative = inhibition: at 37.9 µM (top of the series) unless noted
% is scaled to controls: 0 for no effect and ±100 for the full control effect; potency is read from the fitted curve at half-maximal effect.

Row | SMILES | Potency | activity change, negative = inhibition
1 | Fc1ccc(-c2nc(Nc3ccc(F)c(Cl)c3)nc3c2COc2ccccc2-3)cc1 | inconclusive: 1.12 µM [inhibitor, full curve] | –
2 | CSc1nc2sc3c(c2c(=O)n1CC(C)C)CC(C)(C)OC3 | inconclusive: 3.16 µM [inhibitor, single point] | –
3 | COc1ccc(-n2c3c(cc(C(=O)N4CCCCC4)c2=O)C(=O)CC(C)(C)C3)cc1 | inconclusive: 0.794 µM [inhibitor, partial curve, poor fit] | –
4 | CC(C)Oc1c(Br)cc(Br)cc1/C=N/NC(N)=S | inconclusive: 13 µM [inhibitor, partial curve, poor fit] | –
5 | O=C(CSc1nnc(-c2cccnc2)o1)Nc1nccs1 | inconclusive: 1.26 µM [activator, single point] | –
6 | CN(C)S(=O)(=O)N(CC(=O)N(Cc1ccccc1)Cc1ccccc1)c1ccccc1 | inconclusive: 11.6 µM [inhibitor, partial curve, poor fit] | –
7 | Cc1ccc(C)c(N2CCN(C(=O)C3CCN(c4nc(-c5ccc(C(C)C)cc5)no4)CC3)CC2)c1 | inconclusive: 11.2 µM [inhibitor, partial curve, poor fit] | –
8 | COC(=O)c1ccccc1S(=O)(=O)N1CCC(C(=O)OC(C)C(=O)N(C)Cc2ccccc2)CC1 (centres undefined) | inconclusive: 10 µM [inhibitor, partial curve, poor fit] | –
9 | O=S(=O)(Cc1cc(Sc2ccccc2)nc(-c2ccccc2)n1)c1ccccc1 | inconclusive: 4.47 µM [inhibitor, full curve, poor fit] | –
10 | NC(=S)NN=C1C=CCCC1 | – | inactive: -2.64%
11 | CC1CC(C)CN(C(C)C(=O)Nc2cc(S(=O)(=O)N3CCCCC3)ccc2Cl)C1 (centres undefined) | inconclusive: 3.98 µM [inhibitor, single point] | –
12 | COC(=O)N/N=C\c1cc(Br)ccc1OCc1ccccc1 | inconclusive: 22.4 µM [inhibitor, single point] | –
13 | C/C(=N\NC(=O)c1cccc(Br)c1)c1cccnc1 | inconclusive: 10 µM [activator, partial curve, poor fit] | –
14 | COc1ccccc1CNC(=O)CCn1c(=O)c2ccccc2n(CC(=O)Nc2cccc(Cl)c2)c1=O | inconclusive: 14.1 µM [inhibitor, single point] | –
15 | COc1ccc(C(C)(C)C)cc1NC(=O)c1ccc2c(c1)SC1=NS(=O)(=O)CCN12 | – | inactive: 8.64% [at 46.1 µM]
16 | Cc1nc2ccccc2n1-c1nc(-c2ccco2)cc(C(F)(F)F)n1 | inconclusive: 6.51 µM [activator, partial curve, poor fit] | –
17 | Cc1cc(Nc2cccc([N+](=O)[O-])c2)n2c(nc3ccccc32)c1C#N | active: 6.31 µM | –
18 | CCOC(=O)C1=C(C)N=C2SC=C(C)N2C1c1ccc(OC)cc1 (centres undefined) | inconclusive: 15.8 µM [inhibitor, single point] | –
19 | O=C(NCCCn1ccnc1)Nc1ccc(Cl)cc1 | – | inactive: 22.6%
20 | CCNc1[nH]c(=O)n(C)c(=O)c1N=O | – | inactive: -2.48%
21 | COc1cc(/C=N/NC(=O)c2cc(-c3ccccc3)nc3ccccc23)ccc1O | inconclusive: 35.5 µM [inhibitor, single point] | –
22 | COc1ccc(NC(=O)CN2C(=O)NC3(CCCC3)C2=O)cc1Cl | – | inactive: -8.26%

Row | SMILES | Potency | activity change, negative = inhibition
23 | COc1c(C)cc(S(=O)(=O)NCCc2c(C)[nH]c3ccccc23)c(C)c1C | inconclusive: 28.2 µM [inhibitor, partial curve, poor fit] | –
24 | COCCn1c(C)cc(C(=O)CSc2cc(C)c3ccccc3n2)c1C | inconclusive: 25.1 µM [inhibitor, single point] | –
25 | CN(C)Cc1cc(C(C)(C)c2cc(CN(C)C)c(O)c(CN(C)C)c2)cc(CN(C)C)c1O | inconclusive: 9.2 µM [inhibitor, partial curve, poor fit] | –
26 | CCOc1ccc(S(=O)(=O)N2CCOCC2)cc1NS(=O)(=O)c1ccc(OC)c([N+](=O)[O-])c1 | – | inactive: 6.98%
27 | CCN1CCSc2ccc(C(=O)NC(C)c3ccccc3)cc21 (centres undefined) | inconclusive: 20 µM [inhibitor, single point] | –
28 | O=C(NCc1ccc(Cl)cc1)c1cc(S(=O)(=O)N2CCCCC2)c[nH]1 | inconclusive: 10 µM [inhibitor, partial curve, poor fit] | –
29 | O=C(Nc1c(F)cccc1F)c1cnc(N2CCN(c3ccccn3)CC2)c2ccccc12 | inconclusive: 25.9 µM [inhibitor, single point] | –
30 | Cc1nn(CCCC(=O)NCc2ccc(F)cc2)c(=O)c2c1sc1ccccc12 | inconclusive: 35.5 µM [activator, single point] | –
31 | C/C(=N\NC(=S)NCC(C)(C)C)c1cc(F)cc(F)c1O | inconclusive: 35.5 µM [inhibitor, single point] | –
32 | CCOc1cc2c(cc1OCC)-n1cccc1C(c1ccc(C)cc1C)NC2 (centres undefined) | inconclusive: 15.8 µM [inhibitor, single point] | –
33 | C=CCN1C(=O)/C(=C2/Sc3ccc(OC)cc3N2C)SC1=Nc1cccc(O)c1 | inconclusive: 11.2 µM [inhibitor, single point] | –
34 | Cc1ccc(-n2ncc(C(=O)N3CCN(c4cccc(C)c4)C(C)C3)c2C2CCN(C(=O)OC(C)(C)C)CC2)cc1 (centres undefined) | inconclusive: 1.41 µM [inhibitor, full curve, poor fit] | –
35 | Cc1ccc(N/C(N)=N/c2nc3c(c(=O)[nH]2)CCCC3)c(C)c1 | inconclusive: 16.4 µM [inhibitor, single point] | –
36 | CCN(CC)CCNc1ccc(C)c2sc3ccc(O)cc3c(=O)c12 | inconclusive: 4.47 µM [inhibitor, partial curve] | –
37 | CCOCCCNC(=O)/C(C#N)=C/c1cc(OC)c(O)c([N+](=O)[O-])c1 | inconclusive: 3.55 µM [inhibitor, single point] | –
38 | CCN(CC)S(=O)(=O)c1cccc(S(=O)(=O)c2cccc(S(=O)(=O)N(CC)CC)c2)c1 | inconclusive: 14.6 µM [inhibitor, partial curve, poor fit] | –
39 | CN(Cc1cccs1)C(=O)CCc1c[nH]c2ccccc12 | – | inactive: -12.4% [at 46.1 µM]
40 | O=C(NCc1ccco1)c1ccc(-c2cccc(Cl)c2)o1 | inconclusive: 12.6 µM [inhibitor, partial curve, poor fit] | –
41 | COc1ccc(NC(=O)C2=C(C)Nc3ncnn3C2c2ccc(O)cc2)cc1 (centres undefined) | – | inactive: -13.9% [at 46.1 µM]
42 | O=C(O)c1ccc2c(c1)ncn2-c1ccc(F)c(F)c1 | inconclusive: 15.8 µM [activator, single point] | –
43 | CCN(CC)C(=O)CSc1nc(N)c2c3c(sc2n1)CC(C)CC3 (centres undefined) | inconclusive: 6.51 µM [activator, single point] | –
44 | CCOC(=O)c1c(C)[nH]c(C(=O)N/N=C\c2ccccc2Cl)c1C | inconclusive: 10 µM [inhibitor, partial curve] | –

Record cards, from the list above. Order of values: Potency	activity change, negative = inhibition
`O=C(O)c1ccc2c(c1)ncn2-c1ccc(F)c(F)c1` reads inconclusive: 15.8 µM [activator, single point]	–
`O=C(NCc1ccc(Cl)cc1)c1cc(S(=O)(=O)N2CCCCC2)c[nH]1` reads inconclusive: 10 µM [inhibitor, partial curve, poor fit]	–
`CCN(CC)S(=O)(=O)c1cccc(S(=O)(=O)c2cccc(S(=O)(=O)N(CC)CC)c2)c1` reads inconclusive: 14.6 µM [inhibitor, partial curve, poor fit]	–
`CN(Cc1cccs1)C(=O)CCc1c[nH]c2ccccc12` reads –	inactive: -12.4% [at 46.1 µM]

Next part.

Row | SMILES | Potency | activity change, negative = inhibition
45 | CCN(CC)C(=O)c1ccc(NC(=O)c2c(C)noc2C)cc1 | inconclusive: 14.1 µM [activator, single point] | –
46 | Cc1ccc2c(C(=O)CSc3ccccc3)c(C)[nH]c2c1 | – | inactive: 15.4%
47 | C=CCn1c(SCC(=O)Nc2c(C)n(C)n(-c3ccccc3)c2=O)nc2scc(-c3ccccc3)c2c1=O | – | inactive: -13.7%
48 | CCOC(=O)CSc1nc2ccc(NC(=O)c3ccc(C)cc3)cc2s1 | – | inactive: 19.4% [at 46.1 µM]
49 | Cc1ccc(NC(=O)Nc2nnc(N(CC(C)C)CC(C)C)s2)cc1Cl | – | inactive: 17.1% [at 46.1 µM]
50 | N=C1/C(=C/c2ccc(OCc3ccccc3)cc2)C(=O)N=C2SC(CC(=O)N3CCOCC3)=NN12 | – | inactive: -9.48% [at 46.1 µM]
51 | [O-]/[N+](=C/c1cccnc1)c1ccc(Br)cc1 | inconclusive: 3.98 µM [activator, single point] | –
52 | COc1ccc(OC)c(C2=Nn3c(nnc3-c3ccncc3)SC2)c1 | inconclusive: 15.8 µM [inhibitor, single point] | –
53 | COc1ccc(N2CCN(C(=O)CCc3c(C)nn(-c4ccc(N5CCCC5)nn4)c3C)CC2)cc1 | – | inactive: -22.9% [at 46.1 µM]
54 | O=C(NCCCN1CCOCC1)C(=O)NCc1ccccc1 | inconclusive: 35.5 µM [inhibitor, single point] | –
55 | O=C(Cn1cc(Cl)c([N+](=O)[O-])n1)NCCC1=CCCCC1 | – | inactive: -11.3% [at 46.1 µM]
56 | CCOC(=O)CNC(c1ccccc1)c1cc(Br)ccc1NC(=O)CCN1CCOCC1 (centres undefined) | inconclusive: 20.6 µM [inhibitor, single point] | –
57 | CCOc1ccc(-c2cc(NC(=O)Nc3cccc(C(C)=O)c3)c(C(=O)OC)s2)cc1 | inconclusive: 15.8 µM [activator, single point] | –
58 | CCOc1ccc(S(=O)(=O)NCC(c2ccco2)S(=O)(=O)c2cccs2)cc1 (centres undefined) | inconclusive: 35.5 µM [inhibitor, single point] | –
59 | COC(=O)c1[nH]c2ccc(C)cc2c1NC(=O)CN1CCCc2ccccc21 | inconclusive: 20.6 µM [inhibitor, single point] | –
60 | CCOC(=O)C1CCN(C(=O)CN(c2ccc(Oc3ccccc3)cc2)S(C)(=O)=O)CC1 | inconclusive: 11.2 µM [inhibitor, partial curve, poor fit] | –
61 | CC(=O)Nc1ccc(NC(=O)C(C)OC(=O)c2ccc(S(=O)(=O)N3CCCCCC3)cc2)cc1 (centres undefined) | inconclusive: 39.8 µM [inhibitor, partial curve, poor fit] | –
62 | O=C1Nc2cccnc2N(C(=O)CCl)c2ccccc21 | inconclusive: 20 µM [inhibitor, partial curve, poor fit] | –
63 | CC(C)N1CCc2c(sc(NC(=O)c3ccc(C(=O)c4ccccc4)cc3)c2C(N)=O)C1 | inconclusive: 35.5 µM [inhibitor, single point] | –
64 | O=C(NN=Cc1cc(Br)c(O)c(Br)c1)c1ccccc1NS(=O)(=O)c1cccs1 | – | inactive: 1.22%

Source: PubChem BioAssay AID540256 (National Center for Advancing Translational Sciences (NCATS), 2011)
